PubChem BioAssay AID504764, Drosophila RNAi Screening Center, 2011
In all, the deposit lists about 22,000 reagents; shown is an unselected part of those that have a named target and a result. Over the whole deposit, 403 (1.9%) are marked active. 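Unnormalised raw counts per well; ratio z-scores behind the hit calls and whether each hit raises or lowers signal are not deposited.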 Reagents against one gene are numbered here. Not stated in the record: the amount of reagent.

- Test: 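Knock-downs that raise or lower a Notch target reporter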 (primary screen)
- Cells: Drosophila Kc167 cells
- Reagents: long dsRNA against Drosophila genes
- Duration: about 5 days (4 days dsRNA, then 24 h after transfection)
- Treatment: transfection of constitutively active membrane-tethered Notch lacking the extracellular domain, read 24 h later
- Detection: 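Firefly luciferase from an E(spl)m3 reporter with active Notch, plus control-promoter and uninduced reporter wells for normalisation; unnormalised counts, duplicate wells a and b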
- Reading the numbers: induced reporter light, run 1, well a and induced reporter light, run 1, well b: higher = more light from the Notch target reporter with active Notch; control promoter light, run 1, well a and control promoter light, run 1, well b: higher = more light from the viral control promoter (cell number, transfection, viability); uninduced reporter light, run 1, well a: higher = more light from the Notch target reporter without active Notch
- Rule for the call: 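Wells with low control signal or poorly matching duplicates excluded; duplicates averaged; per source plate, z beyond ±2 for induced/control log2 ratio or beyond ±1.8 for induced/uninduced marks a hit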
- Meaning of the calls: active = modifier hit (raised or lowered Notch signal); inactive = not a hit

| gene | reagent no. | induced reporter light, run 1, well a | induced reporter light, run 1, well b | control promoter light, run 1, well a | control promoter light, run 1, well b | uninduced reporter light, run 1, well a | outcome |
| --- | --- | --- | --- | --- | --- | --- | --- |
| Lasp | 1 | 1.24e5 | 67920 | 1.03e5 | 82490 | 8035 | inactive |
| CtBP | 1 | 75575 | 60530 | 64730 | 60740 | 5625 | inactive |
| pho | 1 | 83440 | 1.08e5 | 1.57e5 | 1.72e5 | 8470 | inactive |
| CG7536 | 1 | 1.17e5 | 1.18e5 | 99870 | 45200 | 9930 | inactive |
| CG6180 | 1 | 2.40e5 | 1.93e5 | 1.97e5 | 2.01e5 | 15130 | inactive |
| BTBD9 | 1 | 1.42e5 | 1.20e5 | 3.03e5 | 2.95e5 | 9470 | inactive |
| beg | 1 | 1.24e5 | 1.03e5 | 70120 | 66400 | 7250 | inactive |
| PIG-Wb | 1 | 1.42e5 | 1.16e5 | 2.23e5 | 1.53e5 | 5442 | inactive |
| ND-MWFE | 1 | 1.02e5 | 1.33e5 | 1.20e5 | 1.55e5 | 9940 | inactive |
| CG5011 | 1 | 1.08e5 | 91725 | 1.61e5 | 1.71e5 | 8275 | inactive |
| CG5011 | 2 | 83610 | 99055 | 87295 | 87415 | 6765 | inactive |
| CG15286 | 1 | 71135 | 94695 | 68540 | 73130 | 8990 | inactive |
| Ibf2 | 1 | 88615 | 1.27e5 | 1.02e5 | 1.22e5 | 7260 | inactive |
| CG1213 | 1 | 78910 | 96205 | 80550 | 60400 | 6320 | inactive |
| Non2 | 1 | 80765 | 91185 | 1.44e5 | 2.06e5 | 7510 | inactive |
| CG42319 | 1 | 90895 | 95650 | 1.09e5 | 85315 | 8405 | inactive |
| CG42319 | 2 | 82350 | 1.18e5 | 1.12e5 | 1.14e5 | 9780 | inactive |
| CG17985 | 1 | 1.74e5 | 2.09e5 | 2.81e5 | 2.22e5 | 17830 | inactive |
| Paf-AHalpha | 1 | 63525 | 62055 | 73625 | 88690 | 9505 | inactive |
| Eig71Ee | 1 | 2.07e5 | 2.10e5 | 2.94e5 | 2.96e5 | 8870 | inactive |
| GatA | 1 | 1.65e5 | 2.02e5 | 2.11e5 | 2.19e5 | 15960 | inactive |
| kumpel | 1 | 1.34e5 | 1.15e5 | 1.92e5 | 2.00e5 | 11035 | inactive |
| kumpel | 2 | 1.72e5 | 1.67e5 | 1.69e5 | 1.85e5 | 13900 | inactive |
| kumpel | 3 | 1.54e5 | 1.78e5 | 2.15e5 | 1.99e5 | 13100 | inactive |
| kumpel | 4 | 1.62e5 | 1.69e5 | 1.69e5 | 1.73e5 | 13365 | inactive |
| kumpel | 5 | 1.81e5 | 1.45e5 | 2.03e5 | 1.81e5 | 14895 | inactive |
| kumpel | 6 | 1.46e5 | 1.51e5 | 2.18e5 | 2.02e5 | 12190 | inactive |
| NimB2 | 1 | – | – | – | – | – | inactive |
| CG33639 | 1 | 97705 | 83625 | 99250 | 72735 | 11238 | inactive |
| CG33639 | 2 | – | – | – | – | – | inactive |
| alpha-Est4 | 1 | 88815 | 1.02e5 | 89965 | 70030 | 4660 | inactive |
| Smurf | 1 | 1.23e5 | 91520 | 95065 | 1.07e5 | 8375 | inactive |
| CG3107 | 1 | 1.67e5 | 1.72e5 | 1.43e5 | 1.83e5 | 12845 | inactive |
| Tat | 1 | 99070 | 1.13e5 | 1.24e5 | 79560 | 11770 | inactive |
| rols | 1 | 2.13e5 | 1.55e5 | 2.64e5 | 1.83e5 | 11370 | inactive |
| rols | 2 | 1.69e5 | 1.29e5 | 1.97e5 | 1.60e5 | 9385 | inactive |
| rols | 3 | 63390 | 71395 | 1.13e5 | 93260 | 3345 | inactive |
| Coprox | 1 | 1.33e5 | 1.35e5 | 2.04e5 | 2.24e5 | 12565 | active |
| CG30026 | 1 | 2.55e5 | 2.06e5 | 2.71e5 | 3.12e5 | 26180 | inactive |
| mRpL2 | 1 | 1.01e5 | 1.18e5 | 2.41e5 | 1.43e5 | 6170 | inactive |
| CG11699 | 1 | 1.22e5 | 1.18e5 | 2.02e5 | 2.10e5 | 8495 | inactive |
| CG5290 | 1 | 1.46e5 | 1.49e5 | 92560 | 1.53e5 | 9378 | inactive |
| nAChRalpha2 | 1 | 61565 | 62790 | 59655 | 52570 | 5165 | inactive |
| CG6984 | 1 | 51935 | 86390 | 1.42e5 | 1.83e5 | 8442 | inactive |
| Sirt2 | 1 | 1.85e5 | 1.55e5 | 1.64e5 | 1.72e5 | 11470 | inactive |
| CG14949 | 1 | 1.35e5 | 1.13e5 | 1.82e5 | 1.18e5 | 6365 | inactive |
| bbg | 1 | 2.26e5 | 2.09e5 | 2.95e5 | 2.41e5 | 4680 | inactive |
| bbg | 2 | 1.70e5 | 1.60e5 | 2.15e5 | 1.53e5 | 6085 | inactive |
| Nnp-1 | 1 | 1.43e5 | 1.53e5 | 1.44e5 | 1.64e5 | 11400 | inactive |
| pcs | 1 | 1.65e5 | 1.69e5 | 1.94e5 | 2.15e5 | 15075 | inactive |
| Pcf11 | 1 | 1.26e5 | 96905 | 51340 | 54145 | 6380 | inactive |
| CG3199 | 1 | 3.16e5 | 2.73e5 | 2.38e5 | 2.85e5 | 22370 | inactive |
| ND-B16.6 | 1 | 1.69e5 | 1.73e5 | 2.49e5 | 2.76e5 | 11310 | inactive |
| fig | 1 | 1.43e5 | 1.27e5 | 1.70e5 | 1.88e5 | 12390 | inactive |
| mthl12 | 1 | 1.21e5 | 1.63e5 | 2.33e5 | 1.92e5 | 10965 | inactive |
| shn | 1 | 1.89e5 | 1.82e5 | 2.44e5 | 3.36e5 | 20750 | inactive |
| shn | 2 | 1.21e5 | 1.31e5 | 1.30e5 | 1.36e5 | 12020 | inactive |
| CG7685 | 1 | 1.59e5 | 1.64e5 | 1.94e5 | 1.98e5 | 10865 | inactive |
| mRpL9 | 1 | 1.86e5 | 1.83e5 | 2.27e5 | 2.18e5 | 16370 | inactive |
| CG32459 | 1 | 1.21e5 | 1.04e5 | 1.07e5 | 80330 | 7050 | inactive |
| CG7742 | 1 | 1.71e5 | 1.64e5 | 1.46e5 | 1.83e5 | 15680 | inactive |
| CG18622 | 1 | 2.95e5 | 3.23e5 | 3.06e5 | 2.83e5 | 23400 | inactive |
| CREG | 1 | 1.98e5 | 1.66e5 | 1.66e5 | 1.78e5 | 14515 | inactive |
| t-cup | 1 | 1.39e5 | 1.24e5 | 1.70e5 | 1.43e5 | 11700 | inactive |
